We go through 1 molecule from BindingDB's records for doi:10.1016/s0742-8413(97)00614-2 (University of Montana, 1997).

This experiment deals with T1, 5-hydroxytryptamine receptor 1A (Oryctolagus cuniculus, UniProt Q9MZ11).
T1 sequence (Q9MZ11 whole entry): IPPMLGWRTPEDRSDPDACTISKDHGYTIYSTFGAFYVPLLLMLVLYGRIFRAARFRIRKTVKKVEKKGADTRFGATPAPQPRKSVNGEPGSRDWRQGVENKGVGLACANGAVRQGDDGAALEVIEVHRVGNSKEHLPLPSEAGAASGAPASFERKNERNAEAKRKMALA

As a reminder, the Ki is the equilibrium dissociation constant of an inhibitor or competing ligand from its target. Low values mean higher affinity, high ones lower affinity. In turn, `CC(C)NC[C@H](O)COc1cccc2ccccc12` [Propanolol,(+/-)] came in with a Ki of 78 nM.
